Patent US20210355178A1
These are yes or no findings as the source states them, for the method shown. Some entries that bind do so weakly or less than the wild type. For some assays here: Tags and fused reporters may be left off the sequences shown.

Amino acid sequences for entries named in this document (tags omitted). A change or cut given only in a name is not applied to a line headed by its entry.
UniProt P01024: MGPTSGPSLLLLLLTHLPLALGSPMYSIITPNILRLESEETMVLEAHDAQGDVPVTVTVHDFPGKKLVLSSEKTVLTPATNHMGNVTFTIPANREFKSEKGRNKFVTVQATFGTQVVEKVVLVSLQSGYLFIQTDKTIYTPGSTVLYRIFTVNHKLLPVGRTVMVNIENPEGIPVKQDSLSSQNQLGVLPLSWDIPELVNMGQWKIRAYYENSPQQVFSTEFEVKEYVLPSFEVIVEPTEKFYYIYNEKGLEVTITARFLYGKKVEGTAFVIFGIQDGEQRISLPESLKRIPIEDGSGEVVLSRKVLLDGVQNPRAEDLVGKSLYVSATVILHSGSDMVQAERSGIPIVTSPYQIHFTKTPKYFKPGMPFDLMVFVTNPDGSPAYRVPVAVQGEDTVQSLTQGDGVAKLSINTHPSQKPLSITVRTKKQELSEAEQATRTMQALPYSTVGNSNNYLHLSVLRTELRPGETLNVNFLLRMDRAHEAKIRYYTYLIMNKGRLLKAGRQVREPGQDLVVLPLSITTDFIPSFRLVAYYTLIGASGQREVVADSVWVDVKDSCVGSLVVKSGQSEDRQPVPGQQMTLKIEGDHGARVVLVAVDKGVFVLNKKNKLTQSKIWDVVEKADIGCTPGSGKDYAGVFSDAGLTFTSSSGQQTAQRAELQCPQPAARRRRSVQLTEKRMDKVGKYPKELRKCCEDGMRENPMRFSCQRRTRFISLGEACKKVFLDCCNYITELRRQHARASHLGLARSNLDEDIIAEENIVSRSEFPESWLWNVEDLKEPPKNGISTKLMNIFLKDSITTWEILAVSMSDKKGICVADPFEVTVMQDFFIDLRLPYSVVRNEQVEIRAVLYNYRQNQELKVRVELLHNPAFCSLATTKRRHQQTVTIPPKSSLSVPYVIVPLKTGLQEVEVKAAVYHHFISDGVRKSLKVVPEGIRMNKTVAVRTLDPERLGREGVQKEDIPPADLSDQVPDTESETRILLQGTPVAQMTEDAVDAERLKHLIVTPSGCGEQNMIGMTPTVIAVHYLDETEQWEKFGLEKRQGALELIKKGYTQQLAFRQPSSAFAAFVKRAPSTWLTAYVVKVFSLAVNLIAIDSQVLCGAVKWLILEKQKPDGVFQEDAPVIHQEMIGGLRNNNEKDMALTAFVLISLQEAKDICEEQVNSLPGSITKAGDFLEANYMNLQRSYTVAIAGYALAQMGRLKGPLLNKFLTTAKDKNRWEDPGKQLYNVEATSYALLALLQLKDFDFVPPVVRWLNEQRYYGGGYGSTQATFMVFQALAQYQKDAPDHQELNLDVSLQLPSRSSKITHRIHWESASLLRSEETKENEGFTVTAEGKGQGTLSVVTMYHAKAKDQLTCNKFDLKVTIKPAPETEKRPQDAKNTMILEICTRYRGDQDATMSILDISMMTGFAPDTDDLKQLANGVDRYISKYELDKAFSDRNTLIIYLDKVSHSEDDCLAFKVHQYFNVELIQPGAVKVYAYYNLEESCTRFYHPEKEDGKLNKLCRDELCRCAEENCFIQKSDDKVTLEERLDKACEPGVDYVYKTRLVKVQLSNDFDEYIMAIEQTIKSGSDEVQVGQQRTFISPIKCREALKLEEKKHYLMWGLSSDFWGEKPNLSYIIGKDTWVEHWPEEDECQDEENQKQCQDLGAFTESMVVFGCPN

B1: miniFH-Fc (Fc fusion)
chain: EDCNELPPRRNTEILTGSWSDQTYPEGTQAIYKCRPGYRSLGNIIMVCRKGEWVALNPLRKCQKRPCGHPGDTPFGTFTLTGGNVFEYGVKAVYTCNEGYQLLGEINYRECDTDGWTNDIPICEVVKCLPVTAPENGKIVSSAMEPDREYHFGQAVRFVCNSGYKIEGDEEMHCSDDGFWSKEKPKCVEISCKSPDVINGSPISQKIIYKENERFQYKCNMGYEYSERGDAVCTESGWRPLPSCEEAGGGGGGGGGGGGGKCGPPPPIDNGDITSFPLSVYAPASSVEYQCQNLYQLEGNKRITCRNGQWSEPPKCLHPCVISREIMENYNIALRWTAKQKLYSRTGESVEFVCKRGYRLSSRSHTLRTTCWDGKLEYPTCAGPGGGGGPGCPAPELLGGPSVFLFPPKPKDTLMISRTPEVTCVVVDVSHEDPEVKFNWYVDGVEVHNAKTKPREEQYQSTYRVVSVLTVLHQDWLNGKEYKCKVSNKALPAPIEKTISKAKGQPREPQVYTLPPSREEMTKNQVSLTCLVKGFYPSDIAVEWESNGQPENNYKTTPPVLDSDGSFFLYSKLTVDKSRWQQGNVFSCSVMHEALHNHYTQKSLSLSPGGGGGGG
B2: miniFH (designed binder)
chain: EDCNELPPRRNTEILTGSWSDQTYPEGTQAIYKCRPGYRSLGNIIMVCRKGEWVALNPLRKCQKRPCGHPGDTPFGTFTLTGGNVFEYGVKAVYTCNEGYQLLGEINYRECDTDGWTNDIPICEVVKCLPVTAPENGKIVSSAMEPDREYHFGQAVRFVCNSGYKIEGDEEMHCSDDGFWSKEKPKCVEISCKSPDVINGSPISQKIIYKENERFQYKCNMGYEYSERGDAVCTESGWRPLPSCEEAGGGGGGGGGGGGGKCGPPPPIDNGDITSFPLSVYAPASSVEYQCQNLYQLEGNKRITCRNGQWSEPPKCLHPCVISREIMENYNIALRWTAKQKLYSRTGESVEFVCKRGYRLSSRSHTLRTTCWDGKLEYPTCAKR

Tests used:
complement factor C3b [1] = biological target: complement factor C3b (UniProt P01024); assay: SPR, C3b amine-coupled (4030 RU), analyte in solution
complement factor C3b [2] = biological target: complement factor C3b (UniProt P01024); assay: SPR, C3b amine-coupled (4030 RU), 1:1 steady-state affinity fit

Binder	binding (complement factor C3b [1])	binding (complement factor C3b [2])
B1	binds	–
B2	–	binds
